Reference: article PMC3787081, “The Heteromultimeric Debranching Enzyme Involved in Starch Synthesis in Arabidopsis Requires Both Isoamylase1 and Isoamylase2 Subunits for Complex Stability and Activity” (PLoS ONE, 2013)

Target: T1, ISA2-TAP (ISA2 with a C-terminal tandem affinity purification tag) (Arabidopsis) (UniProt Q8L735)
T1 sequence: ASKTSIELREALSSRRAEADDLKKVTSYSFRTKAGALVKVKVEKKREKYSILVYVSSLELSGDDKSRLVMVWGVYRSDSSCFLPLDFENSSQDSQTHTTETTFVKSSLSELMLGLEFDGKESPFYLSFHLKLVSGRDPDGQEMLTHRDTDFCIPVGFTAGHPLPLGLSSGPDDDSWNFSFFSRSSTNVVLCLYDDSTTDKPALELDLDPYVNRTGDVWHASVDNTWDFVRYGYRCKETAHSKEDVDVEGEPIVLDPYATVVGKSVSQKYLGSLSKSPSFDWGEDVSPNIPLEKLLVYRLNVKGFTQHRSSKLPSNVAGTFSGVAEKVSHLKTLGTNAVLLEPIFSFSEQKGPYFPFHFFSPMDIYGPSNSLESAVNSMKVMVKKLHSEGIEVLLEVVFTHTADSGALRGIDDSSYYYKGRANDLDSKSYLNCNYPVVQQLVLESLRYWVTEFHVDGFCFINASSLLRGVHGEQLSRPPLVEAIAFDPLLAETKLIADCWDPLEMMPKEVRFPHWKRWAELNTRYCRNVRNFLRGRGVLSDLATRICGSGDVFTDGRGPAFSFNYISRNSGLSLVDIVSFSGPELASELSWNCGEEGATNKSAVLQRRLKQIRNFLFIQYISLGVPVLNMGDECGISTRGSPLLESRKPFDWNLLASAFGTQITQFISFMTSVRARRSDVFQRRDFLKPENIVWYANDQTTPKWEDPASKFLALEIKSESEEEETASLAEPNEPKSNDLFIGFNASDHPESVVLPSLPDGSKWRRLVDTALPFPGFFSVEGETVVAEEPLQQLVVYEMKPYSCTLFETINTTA
Assay: affinity purification with mass spectrometry; tandem affinity purification of ISA2-TAP from leaf extracts (IgG-Sepharose, TEV elution, Calmodulin Sepharose with 2 mM CaCl2, EGTA elution); SDS-PAGE, silver stain, in-gel tryptic digestion, LC-MS/MS; wild-type extracts as control

binding: no binding
B1: Rubisco activase (protein, UniProt P10896 59-474)
chain: AVKEDKQTDGDRWRGLAYDTSDDQQDITRGKGMVDSVFQAPMGTGTHHAVLSSYEYVSQGLRQYNLDNMMDGFYIAPAFMDKLVVHITKNFLTLPNIKVPLILGIWGGKGQGKSFQCELVMAKMGINPIMMSAGELESGNAGEPAKLIRQRYREAADLIKKGKMCCLFINDLDAGAGRMGGTTQYTVNNQMVNATLMNIADNPTNVQLPGMYNKEENARVPIICTGNDFSTLYAPLIRDGRMEKFYWAPTREDRIGVCKGIFRTDKIKDEDIVTLVDQFPGQSIDFFGALRARVYDDEVRKFVESLGVEKIGKRLVNSREGPPVFEQPEMTYEKLMEYGNMLVMEQENVKRVQLAETYLSQAALGDANADAIGRGTFYGKGAQQVNLPVPEGCTDPVAENFDPTARSDDGTCVYNF

No constants are given. Whether binding was seen depends on the method and setting. Binding seen in cells or lysates may run through a third protein. These calls come from enrichment with a bait or labelling near it, and not all partners need be listed. No binding means not detected with the bait. Sequences can lack the tags named with a protein.
